According to PubChem BioAssay (EPA / NIEHS):
The inconclusive results got no clear call from the source; some entries with a clear call stand among them for comparison. Where the call is inconclusive, the potency comes from a doubtful curve fit. Activity calls are given as the source filed them. Rule for the calls: active = hit-call score of the fitted dose curve at least 0.9, where 1 is the maximum; inconclusive = response in the unintended direction; inactive = score below 0.9.

system: zebrafish Estrogen Receptor (ESR2B), gene 317733; assay: ATG_zfER2b_XSP1: Attagene TRANS-FACTORIAL Multi-Species (XSP1) HepG2 Assay for zebrafish Estrogen Receptor (ESR2B) (AID 2283773)
In short: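 HepG2 cells transiently transfected with GAL4-UAS reporter units for chimeric zebrafish ER2b-Gal4, with 3 nM 6-alpha-fluorotestosterone present; reporter mRNA measured 24 h after dosing by RT-PCR and capillary electrophoresis, gain versus DMSO.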

Row | Structure (SMILES) | AC50 | outcome
1 | CO/C=C(/C(=O)OC)c1ccccc1Oc1cc(Oc2ccccc2C#N)ncn1 | inconclusive: 0.00607 µM | 
2 | CC(C)CCCCCCCOC(=O)c1ccccc1C(=O)OCCCCCCCC(C)C | inconclusive: 100 µM | 
3 | CCCOCC(=Nc1ccc(Cl)cc1C(F)(F)F)n1ccnc1 |  | inactive

system: frog Estrogen Receptor (ESR2), gene 100174814; assay: ATG_frER2_XSP1: Attagene TRANS-FACTORIAL Multi-Species (XSP1) HepG2 Assay for frog Estrogen Receptor (ESR2) (AID 2283774)
In short: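 HepG2 cells transiently transfected with GAL4-UAS reporter units expressing chimeric frog ER-Gal4; 3 nM 6-alpha-fluorotestosterone present. After 24 h dosing, reporter mRNA quantified by RT-PCR and capillary electrophoresis; gain-of-signal fitted relative to DMSO.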

Row | Structure (SMILES) | AC50 | outcome
4 | COP(=O)(OC)O/C(=C\Cl)c1cc(Cl)c(Cl)cc1Cl | inconclusive: 174 µM | 
5 | CCN(CC)C(=O)C(C)Oc1cccc2ccccc12 (stereo not given) | active: 27.4 µM | 
6 | CO/C=C(/C(=O)OC)c1ccccc1Oc1cc(Oc2ccccc2C#N)ncn1 |  | inactive
7 | CC(=O)c1cc2c(cc1C)C(C)(C)C(C)CC2(C)C (stereo not given) | inconclusive: 163 µM | 
8 | CC(C)CCCCCCCOC(=O)c1ccccc1C(=O)OCCCCCCCC(C)C |  | inactive
9 | C[C@]12C=CC3=C4CCC(=O)C=C4CC[C@H]3[C@@H]1CC[C@@H]2O | inconclusive: 0.1 µM | 
10 | CCCCNC(=O)OCC#CI | inconclusive: 11.1 µM | 
